The values below come from paper doi:10.1101/2021.05.10.443448.

Amino acid sequences for entries named in this document (tags omitted).
UniProt A2RVQ5: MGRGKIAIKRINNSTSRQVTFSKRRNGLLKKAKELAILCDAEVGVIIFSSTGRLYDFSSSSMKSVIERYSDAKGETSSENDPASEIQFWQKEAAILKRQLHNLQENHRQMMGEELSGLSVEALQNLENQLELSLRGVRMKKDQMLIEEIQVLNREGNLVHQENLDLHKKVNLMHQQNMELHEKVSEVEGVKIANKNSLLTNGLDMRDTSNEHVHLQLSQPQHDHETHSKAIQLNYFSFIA
UniProt O64645: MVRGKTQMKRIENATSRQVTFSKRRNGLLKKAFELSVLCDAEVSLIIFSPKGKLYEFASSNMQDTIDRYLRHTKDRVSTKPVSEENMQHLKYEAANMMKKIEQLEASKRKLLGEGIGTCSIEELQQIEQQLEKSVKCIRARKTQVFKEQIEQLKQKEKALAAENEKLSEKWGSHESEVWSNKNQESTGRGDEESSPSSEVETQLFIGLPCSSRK

No constants are given. Whether binding was seen depends on the method and setting. For some of these results: Binding seen in cells or lysates may run through a third protein. Some binding calls cover weakened binding; strength is not graded here. For some of these results: Where a sequence is shown, tags or fusion partners need not be part of it.

B1: LHP1, yeast two-hybrid fusion (protein, UniProt Q946J8 1-445)
chain: MKGASGAVKKKPQVLNEAGEAETAVETVGESRKISGDGGFGSDDGGGGGGGGSGESILREIGDDRPTEDGDEEEEEDEDEDDGGDEEDEEGEGEGGQEERPKLDEGFYEIEAIRRKRVRKGKVQYLIKWRGWPETANTWEPLENLQSIADVIDAFEGSLKPGKPGRKRKRKYAGPHSQMKKKQRLTSTSHDATEKSDSSTSLNNSSLPDIPDPLDLSGSSLLNRDVEAKNAYVSNQVEANSGSVGMARQVRLIDNEKEYDPTLNELRGPVNNSNGAGCSQGGGIGSEGDNVRPNGLLKVYPKELDKNSRFIGAKRRKSGSVKRFKQDGSTSNNHTAPTDQNLTPDLTTLDSFGRIARMGNEYPGVMENCNLSQKTKIEELDITKILKPMSFTASVSDNVQEVLVTFLALRSDGKEALVDNRFLKAHNPHLLIEFYEQHLKYNRTP
B2: LHP1, BiFC construct (protein, UniProt Q946J8 1-445)
chain: B1 chain

The target of one test is AGL16 (AGAMOUS LIKE 16), yeast two-hybrid fusion (Arabidopsis thaliana) (UniProt A2RVQ5). Description: two-hybrid.
Take “SOC1 (SUPPRESSOR OF CONSTANS 1), yeast two-hybrid fusion (from UniProt O64645 1-214)”: the binding result was “binds”.

As to “SVP (SHORT … PHASE), yeast two-hybrid fusion (from UniProt Q9FVC1 1-240)”, the binding result was “binds”.

As for “AGL16 (AGAMOUS LIKE 16), yeast two-hybrid fusion (from UniProt A2RVQ5 1-240)”, the binding entry is on record as “binds”.

For the molecule B1, the binding entry was “no binding”.

A further test concerns the target AGL16-nYFP (35S:AGL16-nYFP) (Arabidopsis thaliana) (UniProt A2RVQ5). Description: split reporter.
On to “SOC1-cYFP (35S:SOC1-cYFP) (from UniProt O64645 1-214)”, for which the binding entry is “binds”.

Turning to “SVP, BiFC construct (from UniProt Q9FVC1 1-240)”, the binding result is given as “binds”.

As to B2, the binding result is “no binding”.
